Binding data for 21 molecules are collected here from PMC7541391.

The chains behind the UniProt entries cited, without tags or fusion partners.
UniProt O15540: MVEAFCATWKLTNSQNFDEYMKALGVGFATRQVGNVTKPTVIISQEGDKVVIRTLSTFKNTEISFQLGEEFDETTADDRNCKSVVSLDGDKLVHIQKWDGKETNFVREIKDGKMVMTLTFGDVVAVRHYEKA
UniProt P16402: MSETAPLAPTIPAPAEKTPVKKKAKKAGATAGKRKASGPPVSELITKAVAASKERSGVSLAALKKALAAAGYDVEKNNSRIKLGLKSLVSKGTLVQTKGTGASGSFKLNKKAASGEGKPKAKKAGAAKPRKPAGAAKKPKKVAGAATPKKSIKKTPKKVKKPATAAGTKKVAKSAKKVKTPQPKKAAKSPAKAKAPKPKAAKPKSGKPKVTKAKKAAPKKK
UniProt P31947: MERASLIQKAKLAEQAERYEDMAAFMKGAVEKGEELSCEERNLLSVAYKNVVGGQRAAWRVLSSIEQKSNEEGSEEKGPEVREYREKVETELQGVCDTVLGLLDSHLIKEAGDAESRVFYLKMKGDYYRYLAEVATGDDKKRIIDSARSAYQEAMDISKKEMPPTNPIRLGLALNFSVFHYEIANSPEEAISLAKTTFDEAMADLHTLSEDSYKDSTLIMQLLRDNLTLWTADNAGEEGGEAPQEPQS
UniProt P58107: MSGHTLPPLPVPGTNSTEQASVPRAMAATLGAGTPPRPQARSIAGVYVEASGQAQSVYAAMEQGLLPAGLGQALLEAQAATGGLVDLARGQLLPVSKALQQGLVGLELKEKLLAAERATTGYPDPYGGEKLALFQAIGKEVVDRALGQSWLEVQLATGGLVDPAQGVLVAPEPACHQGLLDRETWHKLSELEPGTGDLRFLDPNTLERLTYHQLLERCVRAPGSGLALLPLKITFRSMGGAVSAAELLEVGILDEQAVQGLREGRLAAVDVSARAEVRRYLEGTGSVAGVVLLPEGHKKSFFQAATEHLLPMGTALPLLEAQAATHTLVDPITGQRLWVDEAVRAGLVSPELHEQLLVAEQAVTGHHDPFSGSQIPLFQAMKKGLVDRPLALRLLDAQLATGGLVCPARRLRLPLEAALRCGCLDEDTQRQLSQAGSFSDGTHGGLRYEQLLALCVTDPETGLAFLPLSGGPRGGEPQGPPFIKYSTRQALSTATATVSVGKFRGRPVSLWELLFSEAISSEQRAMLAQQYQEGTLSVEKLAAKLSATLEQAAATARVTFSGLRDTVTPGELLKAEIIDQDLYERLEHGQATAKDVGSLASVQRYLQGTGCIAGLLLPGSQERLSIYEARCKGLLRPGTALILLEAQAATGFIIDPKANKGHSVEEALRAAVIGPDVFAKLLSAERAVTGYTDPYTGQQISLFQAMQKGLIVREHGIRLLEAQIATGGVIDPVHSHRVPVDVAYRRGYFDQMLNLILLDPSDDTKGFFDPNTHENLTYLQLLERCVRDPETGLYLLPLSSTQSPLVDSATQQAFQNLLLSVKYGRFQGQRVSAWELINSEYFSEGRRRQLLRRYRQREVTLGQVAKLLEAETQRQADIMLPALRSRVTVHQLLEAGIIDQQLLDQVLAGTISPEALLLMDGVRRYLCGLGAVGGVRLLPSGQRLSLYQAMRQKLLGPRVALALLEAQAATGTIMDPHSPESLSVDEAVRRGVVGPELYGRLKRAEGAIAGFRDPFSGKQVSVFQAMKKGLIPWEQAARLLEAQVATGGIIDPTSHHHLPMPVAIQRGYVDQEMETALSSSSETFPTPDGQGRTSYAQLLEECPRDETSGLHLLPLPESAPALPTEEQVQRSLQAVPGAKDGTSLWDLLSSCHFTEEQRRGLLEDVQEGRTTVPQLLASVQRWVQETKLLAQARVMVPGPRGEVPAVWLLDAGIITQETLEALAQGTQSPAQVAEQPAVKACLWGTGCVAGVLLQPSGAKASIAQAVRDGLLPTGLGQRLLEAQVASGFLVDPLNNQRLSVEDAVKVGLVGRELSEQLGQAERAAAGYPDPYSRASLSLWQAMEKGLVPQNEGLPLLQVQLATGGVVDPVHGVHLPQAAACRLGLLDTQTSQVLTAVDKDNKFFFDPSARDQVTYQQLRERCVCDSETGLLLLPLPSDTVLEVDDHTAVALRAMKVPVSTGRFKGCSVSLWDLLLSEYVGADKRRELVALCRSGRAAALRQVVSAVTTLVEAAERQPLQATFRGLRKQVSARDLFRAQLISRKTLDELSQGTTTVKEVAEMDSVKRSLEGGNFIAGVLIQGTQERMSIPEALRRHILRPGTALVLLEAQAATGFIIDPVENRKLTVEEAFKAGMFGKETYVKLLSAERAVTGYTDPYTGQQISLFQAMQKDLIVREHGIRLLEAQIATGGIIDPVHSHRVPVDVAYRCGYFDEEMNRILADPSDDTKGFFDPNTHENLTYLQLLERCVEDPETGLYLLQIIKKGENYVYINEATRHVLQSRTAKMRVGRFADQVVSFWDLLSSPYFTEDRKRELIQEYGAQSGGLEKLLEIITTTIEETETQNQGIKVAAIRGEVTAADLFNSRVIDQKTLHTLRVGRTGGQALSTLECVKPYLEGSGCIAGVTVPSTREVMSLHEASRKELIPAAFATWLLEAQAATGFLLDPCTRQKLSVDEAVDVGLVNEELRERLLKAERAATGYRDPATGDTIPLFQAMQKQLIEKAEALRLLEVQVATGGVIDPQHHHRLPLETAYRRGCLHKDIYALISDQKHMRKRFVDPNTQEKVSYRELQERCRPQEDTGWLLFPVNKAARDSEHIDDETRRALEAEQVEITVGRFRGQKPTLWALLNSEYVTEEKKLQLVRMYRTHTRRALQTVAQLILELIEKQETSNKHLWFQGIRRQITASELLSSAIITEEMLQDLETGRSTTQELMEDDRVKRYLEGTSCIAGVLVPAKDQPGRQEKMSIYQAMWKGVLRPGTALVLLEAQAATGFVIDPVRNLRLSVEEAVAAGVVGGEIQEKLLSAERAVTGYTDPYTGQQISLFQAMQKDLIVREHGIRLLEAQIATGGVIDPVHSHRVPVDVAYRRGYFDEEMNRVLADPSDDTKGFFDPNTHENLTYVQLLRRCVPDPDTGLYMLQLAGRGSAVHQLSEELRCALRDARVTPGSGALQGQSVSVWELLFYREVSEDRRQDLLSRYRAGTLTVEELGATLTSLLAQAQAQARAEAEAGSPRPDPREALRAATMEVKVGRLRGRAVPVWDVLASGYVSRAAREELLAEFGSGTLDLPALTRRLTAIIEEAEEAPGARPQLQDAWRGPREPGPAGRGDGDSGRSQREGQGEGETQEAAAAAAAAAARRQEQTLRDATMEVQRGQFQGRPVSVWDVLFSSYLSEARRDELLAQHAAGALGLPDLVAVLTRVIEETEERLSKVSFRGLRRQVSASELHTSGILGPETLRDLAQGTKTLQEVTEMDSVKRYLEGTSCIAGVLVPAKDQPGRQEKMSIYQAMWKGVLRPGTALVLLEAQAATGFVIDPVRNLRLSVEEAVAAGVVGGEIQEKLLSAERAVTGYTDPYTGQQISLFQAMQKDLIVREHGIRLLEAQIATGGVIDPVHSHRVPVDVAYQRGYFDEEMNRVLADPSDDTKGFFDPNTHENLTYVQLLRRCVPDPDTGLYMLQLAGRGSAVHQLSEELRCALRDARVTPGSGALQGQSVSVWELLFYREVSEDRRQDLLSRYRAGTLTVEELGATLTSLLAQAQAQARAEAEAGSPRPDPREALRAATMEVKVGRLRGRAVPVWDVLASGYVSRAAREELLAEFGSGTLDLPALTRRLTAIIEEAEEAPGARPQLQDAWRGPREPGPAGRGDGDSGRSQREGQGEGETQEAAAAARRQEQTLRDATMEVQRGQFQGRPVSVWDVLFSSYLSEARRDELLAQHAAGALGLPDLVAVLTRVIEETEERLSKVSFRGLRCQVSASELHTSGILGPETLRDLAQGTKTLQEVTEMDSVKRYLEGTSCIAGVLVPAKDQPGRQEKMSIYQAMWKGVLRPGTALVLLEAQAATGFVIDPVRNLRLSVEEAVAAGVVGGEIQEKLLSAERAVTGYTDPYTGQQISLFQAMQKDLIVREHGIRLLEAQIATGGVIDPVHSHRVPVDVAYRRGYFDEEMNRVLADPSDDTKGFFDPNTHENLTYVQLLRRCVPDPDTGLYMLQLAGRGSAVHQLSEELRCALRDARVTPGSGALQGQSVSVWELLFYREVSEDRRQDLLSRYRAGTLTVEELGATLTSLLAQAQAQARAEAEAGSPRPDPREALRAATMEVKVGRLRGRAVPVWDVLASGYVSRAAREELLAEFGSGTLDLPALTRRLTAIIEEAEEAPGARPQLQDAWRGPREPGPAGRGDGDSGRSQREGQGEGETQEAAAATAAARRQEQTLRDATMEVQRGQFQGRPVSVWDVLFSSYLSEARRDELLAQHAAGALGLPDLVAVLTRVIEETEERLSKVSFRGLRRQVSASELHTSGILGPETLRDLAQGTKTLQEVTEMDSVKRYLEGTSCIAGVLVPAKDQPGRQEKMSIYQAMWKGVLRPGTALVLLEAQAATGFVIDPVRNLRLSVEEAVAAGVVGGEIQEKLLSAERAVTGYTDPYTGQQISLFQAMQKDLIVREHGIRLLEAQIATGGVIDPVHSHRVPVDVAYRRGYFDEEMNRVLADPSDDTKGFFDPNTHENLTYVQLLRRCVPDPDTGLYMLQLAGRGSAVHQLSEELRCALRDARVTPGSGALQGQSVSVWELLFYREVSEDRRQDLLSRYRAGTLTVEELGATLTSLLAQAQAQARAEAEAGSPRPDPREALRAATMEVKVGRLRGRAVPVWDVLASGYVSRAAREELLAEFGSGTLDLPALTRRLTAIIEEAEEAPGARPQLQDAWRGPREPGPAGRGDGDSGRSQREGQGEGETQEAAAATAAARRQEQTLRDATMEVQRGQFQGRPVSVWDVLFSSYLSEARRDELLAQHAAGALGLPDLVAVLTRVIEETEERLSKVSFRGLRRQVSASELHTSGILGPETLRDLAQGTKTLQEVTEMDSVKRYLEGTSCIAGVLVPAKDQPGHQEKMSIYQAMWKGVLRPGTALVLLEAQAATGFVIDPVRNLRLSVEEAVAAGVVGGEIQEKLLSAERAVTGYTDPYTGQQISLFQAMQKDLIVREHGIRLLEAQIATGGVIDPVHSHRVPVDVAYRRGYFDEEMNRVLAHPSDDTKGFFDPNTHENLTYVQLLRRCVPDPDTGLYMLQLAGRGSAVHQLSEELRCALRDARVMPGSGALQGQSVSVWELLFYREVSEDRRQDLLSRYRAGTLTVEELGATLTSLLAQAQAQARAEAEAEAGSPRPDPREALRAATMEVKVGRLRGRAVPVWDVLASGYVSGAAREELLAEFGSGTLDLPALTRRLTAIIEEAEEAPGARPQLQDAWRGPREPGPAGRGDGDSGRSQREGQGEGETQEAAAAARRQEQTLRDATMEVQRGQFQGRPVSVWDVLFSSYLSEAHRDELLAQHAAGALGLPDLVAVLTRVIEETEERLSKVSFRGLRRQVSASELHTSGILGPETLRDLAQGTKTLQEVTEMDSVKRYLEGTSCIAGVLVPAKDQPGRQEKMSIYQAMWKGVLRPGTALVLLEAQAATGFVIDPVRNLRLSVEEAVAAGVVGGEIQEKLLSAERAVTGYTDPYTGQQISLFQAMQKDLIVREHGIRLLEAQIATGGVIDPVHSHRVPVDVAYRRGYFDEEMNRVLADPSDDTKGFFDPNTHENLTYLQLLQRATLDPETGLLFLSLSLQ

Test in all cases: affinity purification with mass spectrometry; lysate of HEK293T cells overexpressing FLAG-tagged FABP7 (wt or mut), pre-cleared with Protein A Sepharose, anti-FLAG magnetic beads at 4 °C overnight, elution with FLAG peptide, SDS-PAGE, silver-stained bands, LC-MS/MS
Assay [1] deals with FLAG-human FABP7wt (human) (UniProt O15540).
Assay [2] concerns the target FLAG-human FABP7mut (human).
The target in assay [3] is FLAG-human FABP7wt (human) (UniProt O15540). This is another data set of the same source.

Where two headings read alike, the source gives them in different places. Results are given in words; binding and its absence hold for the method and conditions named. In cells and extracts the contact can be indirect. A yes stands for co-enrichment or nearness to the bait. Other partners may have been found. For part of these data: No binding means not detected with the bait.

Regarding “ATP synthase subunit beta, mitochondrial (from UniProt P06576 48-529)”, in assay [1], the binding result was “binds”.

“Histone H1.3 (from UniProt P16402 1-221)”: the binding result in assay [1] is “binds”.

For the molecule “Poly [ADP-ribose] polymerase 1 (from UniProt P09874 1-1014)”, in assay [1], the binding result was “binds”.

Turning to “Alpha-actinin-4 (from UniProt O43707 1-911)”, in assay [1], the binding entry is recorded as “binds”.

On to “Immunoglobulin heavy constant gamma 1 (from UniProt P01857-1)”, for which the binding entry in assay [1] is on record as “binds”.

On to “ATP-citrate lyase (human, from HEK293T cells) (from UniProt P53396 1-1101) (enzyme)”, for which the binding entry in assay [1] is listed as “binds”.

With “Serum albumin (from UniProt P02768 25-609)”, the binding entry in assay [1] is “binds”.

As to “Proteasome subunit alpha type-6 (from UniProt P60900 1-246)”, the binding entry in assay [1] is reported as “binds”.

As to “Heat shock protein beta-1 (from UniProt P04792 1-205)”, the binding result in assay [1] is listed as “binds”.

Regarding “Heat shock protein HSP 90-beta (from UniProt P08238 1-724)”, the binding entry in assay [1] is given as “binds”.

As to Gelsolin (from UniProt P06396 28-782), the binding entry in assay [1] is “binds”.

Turning to “14-3-3 protein sigma (from UniProt P31947 1-248)”, the binding entry in assay [1] is “binds”.

Epiplakin (from UniProt P58107 1-5088): the binding result in assay [1] is “binds”.

B1: Protein-glutamine gamma-glutamyltransferase K (protein, UniProt P22735 1-817)
chain: MMDGPRSDVGRWGGNPLQPPTTPSPEPEPEPDGRSRRGGGRSFWARCCGCCSCRNAADDDWGPEPSDSRGRGSSSGTRRPGSRGSDSRRPVSRGSGVNAAGDGTIREGMLVVNGVDLLSSRSDQNRREHHTDEYEYDELIVRRGQPFHMLLLLSRTYESSDRITLELLIGNNPEVGKGTHVIIPVGKGGSGGWKAQVVKASGQNLNLRVHTSPNAIIGKFQFTVRTQSDAGEFQLPFDPRNEIYILFNPWCPEDIVYVDHEDWRQEYVLNESGRIYYGTEAQIGERTWNYGQFDHGVLDACLYILDRRGMPYGGRGDPVNVSRVISAMVNSLDDNGVLIGNWSGDYSRGTNPSAWVGSVEILLSYLRTGYSVPYGQCWVFAGVTTTVLRCLGLATRTVTNFNSAHDTDTSLTMDIYFDENMKPLEHLNHDSVWNFHVWNDCWMKRPDLPSGFDGWQVVDATPQETSSGIFCCGPCSVESIKNGLVYMKYDTPFIFAEVNSDKVYWQRQDDGSFKIVYVEEKAIGTLIVTKAISSNMREDITYLYKHPEGSDAERKAVETAAAHGSKPNVYANRGSAEDVAMQVEAQDAVMGQDLMVSVMLINHSSSRRTVKLHLYLSVTFYTGVSGTIFKETKKEVELAPGASDRVTMPVAYKEYRPHLVDQGAMLLNVSGHVKESGQVLAKQHTFRLRTPDLSLTLLGAAVVGQECEVQIVFKNPLPVTLTNVVFRLEGSGLQRPKILNVGDIGGNETVTLRQSFVPVRPGPRQLIASLDSPQLSQVHGVIQVDVAPAPGDGGFFSDAGGDSHLGETIPMASRGGA
With B1, the binding result in assay [2] was “no binding”; in assay [3], “binds”.

B2: Desmoglein-3 (protein, UniProt P32926 50-999)
chain: EWVKFAKPCREGEDNSKRNPIAKITSDYQATQKITYRISGVGIDQPPFGIFVVDKNTGDINITAIVDREETPSFLITCRALNAQGLDVEKPLILTVKILDINDNPPVFSQQIFMGEIEENSASNSLVMILNATDADEPNHLNSKIAFKIVSQEPAGTPMFLLSRNTGEVRTLTNSLDREQASSYRLVVSGADKDGEGLSTQCECNIKVKDVNDNFPMFRDSQYSARIEENILSSELLRFQVTDLDEEYTDNWLAVYFFTSGNEGNWFEIQTDPRTNEGILKVVKALDYEQLQSVKLSIAVKNKAEFHQSVISRYRVQSTPVTIQVINVREGIAFRPASKTFTVQKGISSKKLVDYILGTYQAIDEDTNKAASNVKYVMGRNDGGYLMIDSKTAEIKFVKNMNRDSTFIVNKTITAEVLAIDEYTGKTSTGTVYVRVPDFNDNCPTAVLEKDAVCSSSPSVVVSARTLNNRYTGPYTFALEDQPVKLPAVWSITTLNATSALLRAQEQIPPGVYHISLVLTDSQNNRCEMPRSLTLEVCQCDNRGICGTSYPTTSPGTRYGRPHSGRLGPAAIGLLLLGLLLLLLAPLLLLTCDCGAGSTGGVTGGFIPVPDGSEGTIHQWGIEGAHPEDKEITNICVPPVTANGADFMESSEVCTNTYARGTAVEGTSGMEMTTKLGAATESGGAAGFATGTVSGAASGFGAATGVGICSSGQSGTMRTRHSTGGTNKDYADGAISMNFLDSYFSQKAFACAEEDDGQEANDCLLIYDNEGADATGSPVGSVGCCSFIADDLDDSFLDSLGPKFKKLAEISLGVDGEGKEVQPPSKDSGYGIESCGHPIEVQQTGFVKCQTLSGSQGASALSTSGSVQPAVSIPDPLQHGNYLVTETYSASGSLVQPSTAGFDPLLTQNVIVTERVICPISSVPGNLAGPTQLRGSHTMLCTEDPCSRLI
Regarding B2, the binding entry in assay [2] is listed as “no binding”; in assay [3], “binds”.

B3: Plakophilin-1 (protein, UniProt Q13835 1-747)
chain: MNHSPLKTALAYECFQDQDNSTLALPSDQKMKTGTSGRQRVQEQVMMTVKRQKSKSSQSSTLSHSNRGSMYDGLADNYNYGTTSRSSYYSKFQAGNGSWGYPIYNGTLKREPDNRRFSSYSQMENWSRHYPRGSCNTTGAGSDICFMQKIKASRSEPDLYCDPRGTLRKGTLGSKGQKTTQNRYSFYSTCSGQKAIKKCPVRPPSCASKQDPVYIPPISCNKDLSFGHSRASSKICSEDIECSGLTIPKAVQYLSSQDEKYQAIGAYYIQHTCFQDESAKQQVYQLGGICKLVDLLRSPNQNVQQAAAGALRNLVFRSTTNKLETRRQNGIREAVSLLRRTGNAEIQKQLTGLLWNLSSTDELKEELIADALPVLADRVIIPFSGWCDGNSNMSREVVDPEVFFNATGCLRKRLGMRELLALVPQRATSSRVNLSSADAGRQTMRNYSGLIDSLMAYVQNCVAASRCDDKSVENCMCVLHNLSYRLDAEVPTRYRQLEYNARNAYTEKSSTGCFSNKSDKMMNNNYDCPLPEEETNPKGSGWLYHSDAIRTYLNLMGKSKKDATLEACAGALQNLTASKGLMSSGMSQLIGLKEKGLPQIARLLQSGNSDVVRSGASLLSNMSRHPLLHRVMGNQVFPEVTRLLTSHTGNTSNSEDILSSACYTVRNLMASQPQLAKQYFSSSMLNNIINLCRSSASPKAAEAARLLLSDMWSSKELQGVLRQQGFDRNMLGTLAGANSLRNFTSRF
As for B3, the binding entry in assay [3] is given as “binds”.

B4: Thymidine phosphorylase (protein, UniProt P19971 11-482)
chain: APPAPGDFSGEGSQGLPDPSPEPKQLPELIRMKRDGGRLSEADIRGFVAAVVNGSAQGAQIGAMLMAIRLRGMDLEETSVLTQALAQSGQQLEWPEAWRQQLVDKHSTGGVGDKVSLVLAPALAACGCKVPMISGRGLGHTGGTLDKLESIPGFNVIQSPEQMQVLLDQAGCCIVGQSEQLVPADGILYAARDVTATVDSLPLITASILSKKLVEGLSALVVDVKFGGAAVFPNQEQARELAKTLVGVGASLGLRVAAALTAMDKPLGRCVGHALEVEEALLCMDGAGPPDLRDLVTTLGGALLWLSGHAGTQAQGAARVAAALDDGSALGRFERMLAAQGVDPGLARALCSGSPAERRQLLPRAREQEELLAPADGTVELVRALPLALVLHELGAGRSRAGEPLRLGVGAELLVDVGQRLRRGTPWLRVHRDGPALSGPQSRALQEALVLSDRAPFAAPSPFAELVLPPQQ
For B4, the binding result in assay [2] is given as “no binding”; in assay [3], “binds”.

B5: Proteolipid protein 2 (protein, UniProt Q04941 1-152)
chain: MADSERLSAPGCWAACTNFSRTRKGILLFAEIILCLVILICFSASTPGYSSLSVIEMILAAIFFVVYMCDLHTKIPFINWPWSDFFRTLIAAILYLITSIVVLVERGNHSKIVAGVLGLIATCLFGYDAYVTFPVRQPRHTAAPTDPADGPV
For B5, the binding result in assay [2] is on record as “no binding”; in assay [3] it was “binds”.

B6: Serpin B3 (protein, UniProt P29508 1-390)
chain: MNSLSEANTKFMFDLFQQFRKSKENNIFYSPISITSALGMVLLGAKDNTAQQIKKVLHFDQVTENTTGKAATYHVDRSGNVHHQFQKLLTEFNKSTDAYELKIANKLFGEKTYLFLQEYLDAIKKFYQTSVESVDFANAPEESRKKINSWVESQTNEKIKNLIPEGNIGSNTTLVLVNAIYFKGQWEKKFNKEDTKEEKFWPNKNTYKSIQMMRQYTSFHFASLEDVQAKVLEIPYKGKDLSMIVLLPNEIDGLQKLEEKLTAEKLMEWTSLQNMRETRVDLHLPRFKVEESYDLKDTLRTMGMVDIFNGDADLSGMTGSRGLVLSGVLHKAFVEVTEEGAEAAAATAVVGFGSSPTSTNEEFHCNHPFLFFIRQNKTNSILFYGRFSSP
Take B6: the binding result in assay [2] is recorded as “no binding”; in assay [3] it was “binds”.

B7: Macrophage-capping protein (protein, UniProt P40121 1-348)
chain: MYTAIPQSGSPFPGSVQDPGLHVWRVEKLKPVPVAQENQGVFFSGDSYLVLHNGPEEVSHLHLWIGQQSSRDEQGACAVLAVHLNTLLGERPVQHREVQGNESDLFMSYFPRGLKYQEGGVESAFHKTSTGAPAAIKKLYQVKGKKNIRATERALNWDSFNTGDCFILDLGQNIFAWCGGKSNILERNKARDLALAIRDSERQGKAQVEIVTDGEEPAEMIQVLGPKPALKEGNPEEDLTADKANAQAAALYKVSDATGQMNLTKVADSSPFALELLISDDCFVLDNGLCGKIYIWKGRKANEKERQAALQVAEGFISRMQYAPNTQVEILPQGHESPIFKQFFKDWK
For the molecule B7, the values for the binding result in assay [2] and in assay [3] were “no binding” and “binds”, respectively.

B8: Peroxiredoxin-1 (protein, UniProt Q06830 1-199)
chain: MSSGNAKIGHPAPNFKATAVMPDGQFKDISLSDYKGKYVVFFFYPLDFTFVCPTEIIAFSDRAEEFKKLNCQVIGASVDSHFCHLAWVNTPKKQGGLGPMNIPLVSDPKRTIAQDYGVLKADEGISFRGLFIIDDKGILRQITVNDLPVGRSVDETLRLVQAFQFTDKHGEVCPAGWKPGSDTIKPDVQKSKEYFSKQK
Consider B8, for which the binding entry in assay [3] is given as “binds”.
